No constants are given. Whether binding was seen depends on the method and setting. For some assays here: A result given as binding can be weak or reduced; the word gives no strength. For some assays here: Sequences can lack the tags named with a protein.

Protein sequences, listed by entry. Tags and fused reporters are not part of them.
UniProt O81445: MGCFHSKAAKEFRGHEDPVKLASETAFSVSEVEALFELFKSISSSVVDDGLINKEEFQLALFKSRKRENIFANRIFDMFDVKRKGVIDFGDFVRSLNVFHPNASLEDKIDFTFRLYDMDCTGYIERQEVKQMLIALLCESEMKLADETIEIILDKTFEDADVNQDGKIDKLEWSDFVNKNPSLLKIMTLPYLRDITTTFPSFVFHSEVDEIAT
UniProt Q9LTB8: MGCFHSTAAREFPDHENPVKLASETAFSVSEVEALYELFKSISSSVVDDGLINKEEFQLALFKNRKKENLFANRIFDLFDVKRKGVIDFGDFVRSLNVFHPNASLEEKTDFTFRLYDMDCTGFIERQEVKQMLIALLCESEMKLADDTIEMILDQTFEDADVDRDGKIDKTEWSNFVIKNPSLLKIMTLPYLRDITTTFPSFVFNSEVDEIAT
UniProt Q9C5P6: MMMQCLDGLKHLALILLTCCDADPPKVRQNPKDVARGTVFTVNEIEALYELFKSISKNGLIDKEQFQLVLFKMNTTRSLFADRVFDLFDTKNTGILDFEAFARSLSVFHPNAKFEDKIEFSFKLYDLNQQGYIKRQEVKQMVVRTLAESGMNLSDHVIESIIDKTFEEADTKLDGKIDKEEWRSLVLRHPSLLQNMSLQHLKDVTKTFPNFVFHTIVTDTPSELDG
UniProt Q9SUA6: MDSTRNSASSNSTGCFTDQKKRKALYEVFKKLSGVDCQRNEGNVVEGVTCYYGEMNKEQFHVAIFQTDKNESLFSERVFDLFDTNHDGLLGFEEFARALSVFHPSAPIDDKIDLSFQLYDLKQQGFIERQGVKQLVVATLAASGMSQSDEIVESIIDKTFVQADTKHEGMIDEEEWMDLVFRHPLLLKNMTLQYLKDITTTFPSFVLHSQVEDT
UniProt O81223: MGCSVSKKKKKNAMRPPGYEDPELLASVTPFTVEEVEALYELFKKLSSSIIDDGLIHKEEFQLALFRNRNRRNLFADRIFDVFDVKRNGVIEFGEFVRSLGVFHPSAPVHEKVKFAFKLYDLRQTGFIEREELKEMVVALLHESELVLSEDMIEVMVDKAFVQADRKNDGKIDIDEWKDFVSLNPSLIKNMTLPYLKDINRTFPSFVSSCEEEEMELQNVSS
UniProt Q7FRS8: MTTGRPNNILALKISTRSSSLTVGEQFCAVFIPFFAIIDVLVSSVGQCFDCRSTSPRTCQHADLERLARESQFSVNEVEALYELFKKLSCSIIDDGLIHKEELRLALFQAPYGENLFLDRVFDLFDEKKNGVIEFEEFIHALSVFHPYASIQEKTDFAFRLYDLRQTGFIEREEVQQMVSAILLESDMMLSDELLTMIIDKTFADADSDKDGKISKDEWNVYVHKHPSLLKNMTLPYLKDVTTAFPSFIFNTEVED

We go through four substances from PMC5705611.

Common to all, as to assay: two-hybrid; yeast AH109 with AD-CIPK3 splice variant and BD-CBL (CBL1-CBL10); spot dilution on SD-HLW + 0.5 mM 3AT and SD-HLW + 3 mM 3AT; strength also by ONPG-based beta-galactosidase assay (Miller Units)
Experiment [1] addresses T1, BD-CBL5 (Calcineurin B-like protein 5) (Arabidopsis) (UniProt Q7FZF1).
T1 sequence: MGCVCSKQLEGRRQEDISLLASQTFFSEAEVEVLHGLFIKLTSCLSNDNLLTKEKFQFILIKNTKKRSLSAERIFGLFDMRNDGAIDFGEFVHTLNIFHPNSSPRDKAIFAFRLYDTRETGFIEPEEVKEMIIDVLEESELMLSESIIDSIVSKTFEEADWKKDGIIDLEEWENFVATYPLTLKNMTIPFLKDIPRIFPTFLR

The target of experiment [2] is T2, BD-CBL8 (Calcineurin B-like protein 8) (Arabidopsis) (UniProt Q9FUQ7).
T2 sequence: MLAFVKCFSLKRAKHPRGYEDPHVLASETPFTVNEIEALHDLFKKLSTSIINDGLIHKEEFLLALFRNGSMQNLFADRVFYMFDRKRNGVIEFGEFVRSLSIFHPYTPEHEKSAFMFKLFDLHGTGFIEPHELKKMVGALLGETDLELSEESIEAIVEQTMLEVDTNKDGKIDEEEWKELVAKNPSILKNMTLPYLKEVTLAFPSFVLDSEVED

Experiment [3] concerns the target BD-CBL1 (Calcineurin B-like protein 1) (Arabidopsis) (UniProt O81445).
Experiment [4] has as its target BD-CBL9 (Calcineurin B-like protein 9) (Arabidopsis) (UniProt Q9LTB8).
Experiment [5] deals with BD-CBL6 (Calcineurin B-like protein 6) (Arabidopsis) (UniProt Q9C5P6).
Experiment [6] deals with BD-CBL7 (Calcineurin B-like protein 7) (Arabidopsis) (UniProt Q9SUA6).
Experiment [7] concerns the target BD-CBL4 (Calcineurin B-like protein 4) (Arabidopsis) (UniProt O81223).
Experiment [8] deals with BD-CBL10 (Calcineurin B-like protein 10) (Arabidopsis) (UniProt Q7FRS8).

For the substance “AD-CIPK3.1 (CBL-interacting protein kinase 3, splice variant CIPK3.1) (Arabidopsis thaliana) (enzyme)”, the binding entry in experiment [1] and in experiment [2] was “no binding” each time.

On to “AD-CIPK3.2 (CBL-interacting protein kinase 3, splice variant CIPK3.2) (Arabidopsis thaliana) (enzyme)”, for which the binding result in experiment [1] and in experiment [2] was “no binding” each time.

Regarding “AD-CIPK3.3 (CBL-interacting protein kinase 3, splice variant CIPK3.3) (Arabidopsis thaliana) (enzyme)”, the binding entry in experiment [1] and in experiment [2] was “no binding” throughout.

Regarding “AD-CIPK3.4 (CBL-interacting protein kinase 3, splice variant CIPK3.4) (from UniProt Q2V452-1) (enzyme)”, the binding entry in experiment [3] is listed as “binds”; in experiment [1] it was “no binding”; in experiment [2], “no binding”; in experiment [4], “binds”; in experiment [5], “binds weakly”; in experiment [6] it was “no binding”. The binding result in experiment [7] and in experiment [8] was “no binding” each time.
